Measurements taken from PubChem BioAssay AID504444 (National Center for Advancing Translational Sciences (NCATS), 2011).
The whole screen tested about 360,000 compounds, of which about 7,500 (2.1%) were called active. Inconclusive results, whose numbers are uncertain, are shown with a selection of clear calls. Calls follow the shape of the dose curve; as a rule, active = well fitted inhibition curve with a large enough effect; inconclusive = small, poorly fitted or top-dose-only effect, or effect the other way; inactive = flat fitted curve, though single readings scatter. Potencies of inconclusive entries are doubtful fits and often do not repeat.

Assay: Nrf2 qHTS screen for inhibitors; also: nearly all actives have a fitted effect of over 60% in size
Settings: A549 ARE-Fluc reporter, luciferase luminescence, 18-24 h; activity change, negative = inhibition: at 46 µM (top of the series)
Method in brief: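 Two sequential reads on A549 ARE_Fluc cells exposed to compound for 18-24 h: a CellTiter-Fluor fluorescence read for viability, then a luciferase luminescence read for Nrf2/ARE activity.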
% is scaled to controls: 0 for no effect and ±100 for the full control effect; potency is read from the fitted curve at half-maximal effect.

SMILES | Potency | activity change, negative = inhibition
Cc1ccc(S(=O)(=O)CCC(=O)N2CCN(c3ccc(Cl)cc3)CC2)cc1 | inconclusive: 25.9 µM [falling, single point] | –
COc1ccc(CN2CCC(=O)c3ccccc3S2(=O)=O)cc1 | inconclusive: 32.6 µM [falling, single point] | –
O=C(OCC(=O)N1CCCc2ccccc21)c1ccccc1OC(F)F | inconclusive: 29.1 µM [activator, single point] | –
COc1ccccc1NC(=O)CN1C(=O)CC(c2ccc(C)c(C)c2)=Nc2ccccc21 | inconclusive: 23.1 µM [activator, single point] | –
CCc1nnc(NS(=O)(=O)c2ccc(NC(=S)NC(=O)c3ccc(OC)c(OC)c3)cc2)s1 | – | inactive: 6.19%
N#CC1=C(N)OC2=C(C(=O)CC(c3ccccc3)C2)C1c1ccc2c(c1)OCO2 (stereo not drawn) | inconclusive: 20.6 µM [falling, single point] | –
CCN(CC)S(=O)(=O)c1ccc2oc(Nc3ccc(OC)cc3OC)nc2c1 | inconclusive: 25.9 µM [falling, single point] | –
Cc1cc(C)c(S(=O)(=O)NCc2ccc3c(c2)OCO3)cc1C | inconclusive: 29.1 µM [falling, single point] | –
COc1ccccc1CCNC(=O)Cc1c(C)c2cc3c(C(C)(C)C)coc3c(C)c2oc1=O | – | inactive: 19.4%
COc1ccc(CCNC(=O)c2ccc(-n3c(C)cc4c3CCCC4)cc2)cc1OC | – | inactive: 6.59%
CCN1CCN(Cc2ccc(NC(=O)c3ccc(C)c(NC(=O)c4ccno4)c3)cc2C(F)(F)F)CC1 | – | inactive: -6.63%
CCOC(=O)c1c[nH]c2c(C(=O)c3ccccc3)cc(Cl)cc2c1=O | inconclusive: 13 µM [falling, partial curve, poor fit] | –
C[n+]1cccc2cccc([O-])c21 | inconclusive: 0.146 µM [falling, full curve, poor fit] | –
CCCc1c(O)nc(SC2CC(=O)N(c3ccc(OC)cc3)C2=O)[nH]c1=O (stereo not drawn) | – | inactive: 6.09%
Cc1c(NC(=O)c2ccc3c(c2)OCO3)cccc1-c1nc2ccccc2s1 | inconclusive: 16.4 µM [falling, partial curve] | –
CC(=NN1CC(=O)NC1=O)c1ccc([N+](=O)[O-])o1 | inconclusive: 16.4 µM [falling, partial curve] | –
CC1(C)CC2CC(C)(CN2C(=O)COC(=O)CNC(=O)c2ccc(Cl)c(Cl)c2)C1 (stereo not drawn) | – | inactive: -12.4%
Cc1nc2cc(-c3ccc(F)cc3)[nH]n2c(=O)c1C | inconclusive: 8.2 µM [activator, partial curve, poor fit] | –
O=C(NCCCn1ccnc1)c1cn(-c2ccccc2)nc1-c1ccccc1 | inconclusive: 20.6 µM [activator, single point] | –
COC(=O)c1c(C)sc(-c2c(-c3ccc4c(c3)OCCO4)[nH]c3[nH]c(=O)[nH]c(=O)c23)c1O | – | inactive: 9.58%
COc1cc2c(C(=O)N3CCN(C)CC3)c(C)n(-c3ccccc3)c2cc1Br | – | inactive: 1.15%
CN1CCSc2ccc(C(=O)NCc3ccccc3F)cc21 | inconclusive: 4.11 µM [activator, full curve] | –

SMILES | Potency | activity change, negative = inhibition
Cc1ccc(/C=C2/SC(=S)N(CCC(=O)N3CCOCC3)C2=O)cc1 | inconclusive: 18.4 µM [activator, single point] | –
O=C(c1oc2ccccc2c1CSCc1ccccc1)N1CCN(c2ncccn2)CC1 | inconclusive: 29.1 µM [falling, single point] | –
CC(=O)N[C@@H](CC(=O)O)C(=O)O | inconclusive: 2.59 µM [falling, full curve, poor fit] | –
Nc1ncnc2c1ncn2C1C=C(CO)C(O)C1O (stereo not drawn) | inconclusive: 0.0411 µM [falling, full curve, poor fit] | –
O=C(OCC1CCCO1)c1ccc2c(c1)N(Cc1cccc(Cl)c1)C(=O)c1ccccc1S2(=O)=O (stereo not drawn) | inconclusive: 29.1 µM [activator, single point] | –
CCN1C(=O)[C@@H]2[C@@H](c3ccc(SC4CCCCC4)cc3)N3CCC[C@@]3(C(=O)OC)[C@@H]2C1=O | – | inactive: -17.9%
O=c1ccc2ccc(OCCOc3cccc(Cl)c3)cc2o1 | inconclusive: 5.17 µM [falling, partial curve, poor fit] | –
N=c1oc2ccccc2cc1-c1nc(-c2ccc(Cl)cc2)cs1 | – | inactive: 6.34%
Cc1ccc(NC(=O)NCCOCCn2c(=O)oc3ccccc32)cc1F | inconclusive: 3.66 µM [falling, full curve, poor fit] | –
Cc1nc(NC(=S)NC(=O)c2cccs2)ccc1Br | inconclusive: 7.31 µM [activator, full curve, poor fit] | –
CCCCOc1ccc(-c2nnc(N)s2)cc1 | – | inactive: 0.86%
O=C(CN1C(=O)c2ccccc2S1(=O)=O)NCCSCc1c(F)cccc1Cl | – | inactive: 4.99%
COc1cc(C(=O)Nc2nc3c(s2)Cc2c(Br)ccc(OC)c2-3)cc(OC)c1OC | inconclusive: 14.6 µM [falling, partial curve] | –
COCCCN(C(=O)c1ccco1)c1nc(-c2cc(OC)ccc2OC)cs1 | – | inactive: -18.3%
COC(=O)c1c(C)oc2ccc(NS(=O)(=O)c3cccs3)cc12 | inconclusive: 29.1 µM [falling, single point] | –
CC(=O)c1ccc(N2CCN(C(=O)c3ccc(OCc4c(C)noc4C)cc3)CC2)cc1 | inconclusive: 20.6 µM [falling, partial curve, poor fit] | –
COCCNCc1cc(C)n(-c2cc(S(=O)(=O)N3CCOCC3)ccc2N2CCCC2)c1C | – | inactive: 13.9%
Cc1cccn2c(=O)c3cc(C#N)c(=N)n(CCN4CCOCC4)c3nc12 | – | inactive: 10.6%
COc1ccc(CN(Cc2ccccc2)C(=O)c2ccc(NC(C)=O)cc2)cc1COc1ccc(NC(C)=O)cc1 | inconclusive: 18.4 µM [falling, partial curve] | –
CC(C)(C)NC(=O)N1CCN(c2nc3ccc(Cl)cc3s2)CC1 | inconclusive: 29.1 µM [falling, single point] | –
CC(C)c1ccc(/C=C/c2[nH]c(=O)[nH]c(=O)c2[N+](=O)[O-])cc1 | inconclusive: 20.6 µM [falling, single point] | –

Structural class: the compounds so far containing a nitro group on carbon (two)
SMILES | Potency | activity change, negative = inhibition
CC(=NN1CC(=O)NC1=O)c1ccc([N+](=O)[O-])o1 | inconclusive: 16.4 µM [falling, partial curve] | –
CC(C)c1ccc(/C=C/c2[nH]c(=O)[nH]c(=O)c2[N+](=O)[O-])cc1 | inconclusive: 20.6 µM [falling, single point] | –
